At least one structure is not confirmed: it was looked up by name or label, or the drawing left a doubt.
Columns and labels:
[1] = molecular target: T1, Arabidopsis thaliana DHS1 (AtDHS1), wild type (DHS1^WT), SEQ ID NO:1 (Arabidopsis thaliana, UniProt P29976); assay: DHS enzyme assay with effector, Arabidopsis DHS1 WT; assay type: biochemical; settings: effector screening (FIG. 2D)
T1 construct: without the predicted plastid transit peptide (amino acid residues; 49-525, 34-507, and 52-527, respectively); made in house; host or cells: E. coli Rosetta-2
Method: (§1) To generate DHS proteins with individual sota mutations via site-directed mutagenesis, these pET28a plasmid templates were diluted by 500-fold, mixed with 0.04 U/μL Phusion DNA polymerase (Thermo Scientific), 0.2 mM deoxynucleoside triphosphates (dNTPs), 1× Phusion reaction buffer (Thermo Scientific), and 0.5 μM forward and reverse mutagenesis primers (Table 10). The PCR reaction was run using the following protocol: 98° C. for 30 s followed by 20 cycles of 10 s at 98° C., 20 s at 70° C., 4.5 min at 72° C. with a final extension at 72° C. for 10 min. The PCR products were purified using a QIAquick Gel Extraction Kit (QIAGEN), treated with FastDigest DpnI (Thermo Scientific) to digest methylated plasmid template DNA for 20 min at 37° C., and transformed into E. coli cells. The mutagenized pET28a plasmids were sequenced to confirm that no errors were introduced during the mutagenesis process.
(§2) The DHS enzyme assays were conducted using the colorimetric method that we recently described (9). Briefly, the enzyme solution (7.7 μl) containing 50 mM Hepes (pH 7.4) was preincubated with an effector molecule(s) at room temperature for 15 min. For assays using recombinant protein and enzyme fractions isolated from plant leaves, 0.01 to 0.1 μg and approximately 50 μg of proteins were used, respectively. […]

Chains of the proteins cited; added tags and fusions are not shown. Lines headed by an entry give the natural chain unless they say otherwise; changes in a name come on top. Residues count along the entry.
UniProt P29976, 49-525: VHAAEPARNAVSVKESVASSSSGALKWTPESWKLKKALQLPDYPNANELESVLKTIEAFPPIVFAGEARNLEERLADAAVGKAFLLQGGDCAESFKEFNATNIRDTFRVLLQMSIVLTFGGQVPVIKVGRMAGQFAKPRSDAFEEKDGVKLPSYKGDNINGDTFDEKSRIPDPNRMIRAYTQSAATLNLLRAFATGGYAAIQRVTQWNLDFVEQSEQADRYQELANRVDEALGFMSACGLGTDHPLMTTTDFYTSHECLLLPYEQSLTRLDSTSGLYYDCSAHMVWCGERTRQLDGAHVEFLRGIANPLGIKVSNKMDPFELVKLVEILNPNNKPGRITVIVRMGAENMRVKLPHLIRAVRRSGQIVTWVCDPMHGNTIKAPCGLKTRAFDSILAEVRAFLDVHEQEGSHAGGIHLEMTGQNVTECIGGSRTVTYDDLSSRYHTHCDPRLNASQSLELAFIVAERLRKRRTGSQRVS
UniProt Q00218, 34-507 A224T: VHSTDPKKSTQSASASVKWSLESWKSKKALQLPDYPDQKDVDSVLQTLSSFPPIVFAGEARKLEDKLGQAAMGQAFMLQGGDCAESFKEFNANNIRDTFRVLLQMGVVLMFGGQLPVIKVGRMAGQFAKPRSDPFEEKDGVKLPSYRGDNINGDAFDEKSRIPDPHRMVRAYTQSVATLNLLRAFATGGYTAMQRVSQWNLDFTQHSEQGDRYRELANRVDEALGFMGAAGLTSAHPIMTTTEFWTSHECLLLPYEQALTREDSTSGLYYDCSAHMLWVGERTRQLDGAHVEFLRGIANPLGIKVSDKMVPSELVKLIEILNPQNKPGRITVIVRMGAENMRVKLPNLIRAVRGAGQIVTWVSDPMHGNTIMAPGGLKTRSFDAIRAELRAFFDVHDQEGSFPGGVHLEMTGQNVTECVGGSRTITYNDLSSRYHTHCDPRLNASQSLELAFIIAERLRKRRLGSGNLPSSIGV
UniProt Q00218, 34-507: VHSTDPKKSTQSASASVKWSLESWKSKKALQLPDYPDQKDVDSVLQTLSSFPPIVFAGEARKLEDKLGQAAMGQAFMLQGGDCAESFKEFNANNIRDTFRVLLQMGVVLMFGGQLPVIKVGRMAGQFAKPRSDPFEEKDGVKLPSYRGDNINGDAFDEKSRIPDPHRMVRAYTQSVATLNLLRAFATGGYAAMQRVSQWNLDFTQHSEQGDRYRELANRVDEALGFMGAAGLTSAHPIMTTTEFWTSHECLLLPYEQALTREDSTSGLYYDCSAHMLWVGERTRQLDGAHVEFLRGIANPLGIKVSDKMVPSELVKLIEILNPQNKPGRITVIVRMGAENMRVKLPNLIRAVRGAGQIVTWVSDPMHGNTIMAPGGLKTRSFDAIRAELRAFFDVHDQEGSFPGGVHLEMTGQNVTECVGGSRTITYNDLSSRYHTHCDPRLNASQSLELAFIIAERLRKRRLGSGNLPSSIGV

[2] = test system: Arabidopsis thaliana DHS^WT isoforms (DHS1, DHS2, DHS3), SEQ ID NO:1-3; assay: DHS enzyme assay with effector, all Arabidopsis DHS WT isoforms (summary statements); assay type: biochemical; settings: effector screening (FIG. 2D)
[3] = molecular target: T2, Arabidopsis thaliana DHS2 (SEQ ID NO:2) variant DHS2^A11 (sotaA11), A224T (Arabidopsis thaliana, UniProt Q00218, A224T); assay: DHS enzyme assay with effector, DHS2 sotaA11; assay type: biochemical
T2 construct: without the predicted plastid transit peptide (amino acid residues; 49-525, 34-507, and 52-527, respectively); made in house; host or cells: E. coli
Method: To generate recombinant DHS proteins the pET28a vectors carrying the A. thaliana DHS1 (AtDHS1), AtDHS2, or AtDHS3 WT sequence without the predicted plastid transit peptide (amino acid residues; 49-525, 34-507, and 52-527, respectively) were expressed in E. coli Rosetta-2 cells and purified using Ni-affinity chromatography, exactly as was conducted previously (9). To generate DHS proteins with individual sota mutations via site-directed mutagenesis, these pET28a plasmid templates were diluted by 500-fold, mixed with 0.04 U/μL Phusion DNA polymerase (Thermo Scientific), 0.2 mM deoxynucleoside triphosphates (dNTPs), 1× Phusion reaction buffer (Thermo Scientific), and 0.5 μM forward and reverse mutagenesis primers (Table 10). The PCR reaction was run using the following protocol: 98° C. for 30 s followed by 20 cycles of 10 s at 98° C., 20 s at 70° C., 4.5 min at 72° C. with a final extension at 72° C. for 10 min. […]
The DHS enzyme assays were conducted using the colorimetric method that we recently described (9). […] The absorbance of the pink supernatant was read at 549 nm with the microplate reader (Infinite 200 PRO, TECAN) to calculate DAHP production with the molar extinction coefficient at 549 nm (ε=549 nm) of 4.5×10^4 M^−1 cm^−1. […]

[4] = test system: Arabidopsis DHS1 sotaB4 mutant plants (Col-0 background); assay: Plant growth on media containing ILA, sotaB4 mutant; assay type: in vivo, Arabidopsis thaliana; settings: ILA feeding; 0, 250, 500, or 1000 μM; sotaB4, 3-week-old (FIG. 2G)
[5] = molecular target: T3, Arabidopsis thaliana DHS2 (AtDHS2), wild type (DHS2^WT), SEQ ID NO:2 (Arabidopsis thaliana, UniProt Q00218); assay: DHS enzyme assay with effector, Arabidopsis DHS2 WT; assay type: biochemical; settings: effector screening (FIG. 2D)
T3 construct: without the predicted plastid transit peptide (amino acid residues; 49-525, 34-507, and 52-527, respectively); made in house; host or cells: E. coli Rosetta-2
Method: as §1, §2

Compound | inhibition of DHS1^WT activity [1] | change in IC50 versus DHS2^WT [3] | also measured
Nc1ccccc1C(=O)O [Anthranilate] | did not affect the activity of DHS1 | – | –
O=C(O)Cc1cc(O)ccc1O [HGA, homogentisate] | – | no significant change in IC50 | inhibition of all DHS^WT isoforms [2]: effectively inhibited all DHS^WT isoforms
O=C(O)C(O)Cc1c[nH]c2ccccc12 (stereo not shown) [ILA, Indole-3-lactate] | – | – | growth inhibition versus Col-0 [4]: significantly weakened
O=C(O)C(=O)Cc1ccc(O)cc1 [HPP, 4-Hydroxyphenylpyruvate] | – | no significant change in IC50 | –
O=C(O)Cc1c[nH]c2ccccc12 [IAA, indole-3-acetate] | to a lesser extent, IAA itself inhibit both DHS1 and DHS2 | – | inhibition of DHS2^WT activity [5]: to a lesser extent, IAA itself inhibit both DHS1 and DHS2

— patent US20250043299A1, “POINT MUTATIONS THAT BOOST AROMATIC AMINO ACID PRODUCTION AND CO2 ASSIMILATION IN PLANTS” (Wisconsin Alumni Research Foundation, priority 2021, published 2025)
